# Test results taken from article PMC12040169 (PLOS Biology, 2025).
# This is one part of the list.
# System: T1, CTL2-GFP (C. trachomatis L2/434/Bu, GFP-expressing)
# T1 construct: L2/434/Bu, GFP-expressing
# Parameters: species or system HeLa; Intracellular C. trachomatis growth in HeLa cells, bulk GFP fluorescence relative to DMSO
# Details: bulk GFP, single well; 28.5 h, 10 µM; inhibitor
row,SMILES,% of control remaining
1,CC(=O)Nc1ccc(-c2ccc(COC3CCN(C(=O)Cc4ccc(Cl)cc4)CC3)cc2)cc1 [CBK149218],104.385%
2,N#Cc1c(-c2ccccc2)noc1C/C=N/O [CBK007357],100%
3,O=C(CN1CCCC1=O)N1CCN(C(=O)c2ccc(Br)o2)CC1 [CBK034530],123.777%
4,CCN(CC)C(=O)C1CCCN(C(=O)Nc2ccc3[nH]ccc3c2)C1 (stereo not drawn) [CBK156133],126.435%
5,CSCCN1CCN(c2nccnc2OCC2COc3ccccc3O2)CC1 (stereo not drawn) [CBK082806T],104.937%
6,O=C(O)c1cc(NS(=O)(=O)c2ccc([N+](=O)[O-])cc2)ccc1O [CBK296077],106.086%
7,Cc1cc(C)nc(Nc2n[nH]c(-c3ccc(NC(=O)Nc4ccccc4)cc3)n2)n1 [CBK267076],150.688%
8,CN1C(=S)SC(C)(N(O)C(=O)NC2CCCCC2)C1(C)C (stereo not drawn) [CBK008916],94.7773%
9,O=C(Nc1ccccc1)N1Cc2nc[nH]c2C[C@H]1c1nc(-c2ccccc2)no1 [CBK288997],101.634%
10,O=C(CN1CCOCC1)N1CCN(C(=O)c2ccc(C(F)(F)F)cc2)C1 [CBK051555C],144.412%
11,CCN(CC)C(=O)c1sc2ncccc2c1NS(=O)(=O)Cc1ccccc1[N+](=O)[O-] [CBK050022],129.574%
12,CNC(=O)Cn1nc(C)c2cnn(-c3ccccc3)c2c1=O [CBK287669],127.813%
13,Cc1cc(N2CCN(C(=O)CCc3ccsc3)CC2)nc(C(C)C)n1 [CBK305710],76.4616%
14,CC1CCCN(CC(C)(C)NC(=O)c2cc(C(F)(F)F)nn2C)C1 (stereo not drawn) [CBK281598],162.697%
15,CCC(C(=O)Nc1sc2c(c1C(N)=O)CCCCCC2)c1ccccc1 (stereo not drawn) [CBK265383],115.488%
16,COc1ccccc1-c1nccnc1NCc1ccc(C(F)(F)F)cc1 [CBK036788],182.66%
17,O=C(c1ccc(F)cc1)N1C[C@@H]2C[C@H](C1)c1ccc(-c3cncnc3)c(=O)n1C2 [CBK289185],134.839%
18,Nn1c(S)nnc1Cn1nnc2ccccc21 [CBK268233],98.1431%
19,Fc1ccc(CN2CCC(n3cnc4cccnc43)CC2)cc1 [CBK283580],130.882%
20,Cc1ccc(-c2cc(-c3ccccc3O)nc(N/N=C/c3cccnc3)n2)cc1 [CBK262308],105.046%
21,CN1CCN(CCCNC(=O)N(C)C2CCN(C)C2)CC1 (stereo not drawn) [CBK155993],106.196%
22,COCc1ccc(CN2CCC3(CCc4ccccc4C(=O)N3)C2)o1 (stereo not drawn) [CBK284651],94.475%
23,Cc1cc(CNC(=O)N2CCN(CCc3ccccc3)CC2)no1 [CBK158898],116.049%
24,CCCCOc1ccc(C(N)CC(=O)O)cc1 (stereo not drawn) [CBK262915],113.273%
25,COc1ccc(C2CCN(Cc3cccnc3)CC2)cc1 [CBK283564],127.585%
26,CN(C)c1ccccc1C1(O)CN2CCC1CC2 (stereo not drawn) [CBK022620],137.38%

row,SMILES,% of control remaining
1,O=C(O)CC/C(=N\Nc1ccc([N+](=O)[O-])cc1)c1ccc(F)cc1 [CBK017075],85.5598%
2,COc1ccc(OCCn2c(C(C)O)nc3ccccc32)cc1 (stereo not drawn) [CBK269905],101.357%
3,COc1ccc(-c2cc(C(=O)NCc3cccnc3)c3cc(Br)ccc3n2)cc1 [CBK293958],149.507%
4,O=C(Nc1cccc(C(F)(F)F)c1)c1cnsn1 [CBK018923],121.228%
5,COc1ccc(F)c(C2NC(=O)CCC2N)c1 (stereo not drawn) [CBK282905],106.839%
6,CC(=O)N1CCc2c([nH]c3ccc(Br)cc23)C12CCN(CCCC#N)CC2 [CBK039724],81.878%
7,OCCN(Cc1cccnc1)Cc1cccn1-c1ccccc1F [CBK283019],114.353%
8,CC(C)N1CCCC[C@H]2CN(C(=O)C3OCCc4ccccc43)C[C@H]21 (stereo partly drawn) [CBK285511],89.6549%
9,N[C@H]1CO[C@H]2[C@@H]1OC[C@@H]2n1cc(-c2ccccc2)nn1 [CBK289502],123.9%
10,O=C(Oc1cccc2cnccc12)c1ccccc1 [CBK022889C],86.8653%
11,Cc1ccc(Nc2cncc(-c3ccc(O)cc3)n2)cc1Cl [CBK107802],103.926%
12,COc1ccccc1-c1cc(C(=O)NCCCN2CCOCC2)c2ccccc2n1 [CBK267780],142.34%
13,Cc1n[nH]c(O)c1C(c1ccc(OC(=O)c2c(F)cccc2F)cc1)c1c(C)n[nH]c1O [CBK265136],150.012%
14,O=C(Cc1c[nH]c2ccccc12)N1CCC2(CCCN(Cc3cc(=O)[nH]c(=O)[nH]3)C2)C1 (stereo not drawn) [CBK132049],98.0426%
15,CCCS(=O)(=O)N1CCC2(CCCN(Cc3cccc(F)c3F)C2=O)C1 (stereo not drawn) [CBK306694],148.846%
16,CN1CCCc2ccc(S(=O)(=O)Nc3nc4ncccn4n3)cc21 [CBK305226],127.957%
17,O=C(Nc1ccc(OC(F)(F)F)cc1)c1nn(-c2ncccn2)c2ccccc12 [CBK048510],203.425%
18,CN(C)CCNCc1ccc(-c2cccc(C(=O)O)c2)o1 [CBK287250],110.796%
19,CC(C)n1ncc2c1NC(=O)CC2c1ccc2c(c1)n(C)c(=O)n2C (stereo not drawn) [CBK287926],89.4968%
20,Cc1cc(C)nc(SCC(=O)N/N=C2/C(=O)Nc3ccccc32)n1 [CBK262883],80.1188%
21,Cc1cc(C(=O)Cn2nc(C(=O)O)c3ccccc3c2=O)c(C)n1Cc1ccccc1Cl [CBK297504],99.7182%
22,N#Cc1c(C(F)(F)F)cc(-c2ccncc2)nc1SCCN1CCCCCC1 [CBK267451],140.811%
23,COc1cc(CNc2nc(Br)cn3ccnc23)cc(OC)c1OC [CBK038060],143.558%
24,N#Cc1ccc(-c2cnc(NC(=O)C(F)(F)F)c(-c3ccc(C(=O)N4CCOCC4)cc3)n2)cc1 [CBK093819],124.931%
25,Cc1cc(C)c2c(CC(=O)NNC(=O)COc3ccccc3)coc2c1 [CBK269169],159.89%
26,Cc1ccc(OC2(C(=O)N3CCCC3c3nccs3)CCNCC2)cc1 (stereo not drawn) [CBK307539],122.927%

row,SMILES,% of control remaining
1,CN1CCCc2ccc(S(=O)(=O)NCCc3cn4ccccc4n3)cc21 [CBK306170],159.613%
2,CNC(=O)CCCc1[nH]nc(O)c1Cc1c(Cl)cccc1Cl [CBK085827],88.297%
3,CCCCc1ccc(-c2cnc3nc(O)ccc3c2)cc1 [CBK081296],107.975%
4,CC(Cc1cccs1)NC(=O)c1cccc(-n2cnnc2)c1 (stereo not drawn) [CBK282443],133.536%
5,Cc1ccc(NC(=O)COc2cccnc2)c(C)n1 [CBK200379],140.721%
6,CCOC(=O)CN1CCC(Oc2cncc(OCC3COc4ccccc4O3)n2)C1 (stereo not drawn) [CBK084375],118.185%
7,Cc1nnc(SCC(=O)N2CCN(Cc3ccccc3)CC2)s1 [CBK267196],165.48%
8,Cc1cc(-c2nccnc2NCc2ccccn2)cc(C)c1O [CBK036921],204.51%
9,CCC(CC)C(=O)N(C)c1c(C)nc2ccc(C(=O)NCc3ccc(OC)cc3)cn12 [CBK146501],157.011%
10,CS(=O)(=O)CCNC(=O)c1cnc(-c2ccc(F)cc2)c(-c2ccco2)c1 [CBK037505],161.989%
11,Cn1ccnc1C1(O)CC2CCC(C1)N2C(=O)c1ccco1 (stereo not drawn) [CBK284179],119.815%
12,CC(CN(C)C(=O)Cn1cccc(C(=O)NC2CCCCC2)c1=O)c1ccccc1 (stereo not drawn) [CBK286066],114.825%
13,C=C(C)CNC(=O)c1cc(-c2ccc(OC)cc2)cnc1NCC1CC1 [CBK076339],97.2198%
14,Cc1ccc(S(=O)(=O)Nc2cc(SCC(=O)O)c(O)c3ccccc23)cc1 [CBK265708],46.501%
15,COc1ccc(C2N(CCC(=O)O)CCOC23CCN(C(=O)c2ccc4ccccc4c2)CC3)cc1 (stereo not drawn) [CBK115960],110.329%
16,Cc1ccc(NC(=O)c2cnc(SCc3ccccn3)n(C)c2=O)cc1 [CBK287673],98.5969%
17,Cc1ccc(C(=O)C(OC(=O)COc2ccccc2C)c2ccccc2)cc1C (stereo not drawn) [CBK265512],100%
18,Cc1nn(Cc2c(F)cccc2Cl)c(C)c1NC(=S)Nc1ccc(S(N)(=O)=O)cc1 [CBK267121],91.6749%
19,O=C(NNS(=O)(=O)c1ccc([N+](=O)[O-])cc1)Nc1cccc(C(F)(F)F)c1 [CBK266871],149.025%
20,C=Cn1cc(CN2CCCC(O)(c3ccc(F)cc3)CC2)c(C)n1 (stereo not drawn) [CBK285398],109.742%
21,COc1ccc2cc(C(=O)N3Cc4cnn(CCO)c4C3)n(C)c2c1 [CBK306707],97.065%
22,Cc1cccc(C)c1NC(=O)CN1CCC(Oc2cncc(OCC3COc4ccccc4O3)n2)C1 (stereo not drawn) [CBK084373],80.325%
23,CCCNC(=O)NC1CC(C)(C)Cc2nc(N3CCOCC3)ncc21 (stereo not drawn) [CBK307232],131.225%
24,C(#Cc1cccc(-c2nc3ccccc3nc2-c2cccc(C#Cc3ccc(Sc4ccccc4)cc3)c2)c1)c1ccc(Sc2ccccc2)cc1 [CBK261158],110.661%
25,O=C(OCCc1ccncc1)N1CCC(F)(F)CC1 [CBK200158],96.5294%
26,O=C(CCC1CCCC1)n1ccn(C(c2ccccc2)c2ccccc2)c1=O [CBK106619],143.985%

# A draw from above in order of heavy-atom count, smallest number first:
row,SMILES,% of control remaining
25,O=C(OCCc1ccncc1)N1CCC(F)(F)CC1 [CBK200158],96.5294%
4,CC(Cc1cccs1)NC(=O)c1cccc(-n2cnnc2)c1 (stereo not drawn) [CBK282443],133.536%
17,Cc1ccc(C(=O)C(OC(=O)COc2ccccc2C)c2ccccc2)cc1C (stereo not drawn) [CBK265512],100%
